PubChem BioAssay AID1224830, NIAID – 2016
The whole screen tested about 18,000 reagents; below is a part drawn at random. About 2,900 of them (16%) were called active. 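Calls are made per well; low scores hint the gene aids the LPS response, high scores that it dampens it.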 Repeated entries: four replicate wells of each siRNA pool.

Purpose: 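Host factors that control LPS-induced TNF expression in human macrophages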 (primary screen)
System: human THP-1 monocytic leukaemia cells, TNF dual-luciferase reporter clone, PMA-differentiated to macrophage-like cells
Knock-down reagent: siRNA pool against human genes, 50 nM
Time to read-out: LPS for 4 h, given about 3 days after siRNA transfection
Challenge: bacterial LPS (TLR4 ligand), 10 ng/ml
Read-out: 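TNF firefly reporter luminescence divided by renilla, normalised to the plate median, then turned into a robust z-score for each replicate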
Scale: TNF reporter robust z-score: higher = stronger TNF reporter response to LPS
Hit rule: 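a well is active when its z-score exceeds 2.8 or falls below -1.5; control wells carry no call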

gene	TNF reporter robust z-score	Outcome
TEP1 (GeneID 7011)	-1.36	inactive
TEP1 (GeneID 7011)	-0.77	inactive
TEP1 (GeneID 7011)	-1	inactive
TEP1 (GeneID 7011)	-0.8	inactive
PRR23B (GeneID 389151)	0.48	inactive
PRR23B (GeneID 389151)	-0.65	inactive
PRR23B (GeneID 389151)	8.05	active
PRR23B (GeneID 389151)	-0.16	inactive
STRA6 (GeneID 64220)	-1.3	inactive
STRA6 (GeneID 64220)	-0.09	inactive
STRA6 (GeneID 64220)	-0.83	inactive
STRA6 (GeneID 64220)	0.39	inactive
ARMH3 (GeneID 79591)	-0.54	inactive
ARMH3 (GeneID 79591)	0.7	inactive
ARMH3 (GeneID 79591)	1.3	inactive
ARMH3 (GeneID 79591)	1.04	inactive
TTL (GeneID 150465)	-0.53	inactive
TTL (GeneID 150465)	-0.7	inactive
TTL (GeneID 150465)	-0.9	inactive
CYB5D2 (GeneID 124936)	0.35	inactive
CYB5D2 (GeneID 124936)	0.07	inactive
CYB5D2 (GeneID 124936)	0.86	inactive
FOLR1 (GeneID 2348)	-0.8	inactive
FOLR1 (GeneID 2348)	-0.31	inactive
FOLR1 (GeneID 2348)	0.22	inactive
FOLR1 (GeneID 2348)	-0.75	inactive
EIF1AD (GeneID 84285)	0.58	inactive
EIF1AD (GeneID 84285)	2.81	active
EIF1AD (GeneID 84285)	1.18	inactive
EIF1AD (GeneID 84285)	2.8	active
CD160 (GeneID 11126)	1.18	inactive
CD160 (GeneID 11126)	-0.37	inactive
CD160 (GeneID 11126)	0.93	inactive
CD160 (GeneID 11126)	2.11	inactive
KCTD10 (GeneID 83892)	-0.13	inactive
KCTD10 (GeneID 83892)	-0.56	inactive
KCTD10 (GeneID 83892)	-0.2	inactive
KCTD10 (GeneID 83892)	0.96	inactive

Continued, starting with the last 7 of the part before.
gene	TNF reporter robust z-score	Outcome
CD160 (GeneID 11126)	-0.37	inactive
CD160 (GeneID 11126)	0.93	inactive
CD160 (GeneID 11126)	2.11	inactive
KCTD10 (GeneID 83892)	-0.13	inactive
KCTD10 (GeneID 83892)	-0.56	inactive
KCTD10 (GeneID 83892)	-0.2	inactive
KCTD10 (GeneID 83892)	0.96	inactive
TRIM8 (GeneID 81603)	-0.37	inactive
TRIM8 (GeneID 81603)	-0.15	inactive
TRIM8 (GeneID 81603)	0.44	inactive
TRIM8 (GeneID 81603)	-0.55	inactive
SLC16A12 (GeneID 387700)	-1.14	inactive
SLC16A12 (GeneID 387700)	-0.83	inactive
SLC16A12 (GeneID 387700)	-0.58	inactive
SLC16A12 (GeneID 387700)	-0.92	inactive
FUT3 (GeneID 2525)	-1.33	inactive
FUT3 (GeneID 2525)	-0.42	inactive
FUT3 (GeneID 2525)	-0.74	inactive
FUT3 (GeneID 2525)	-1.09	inactive
SLCO4C1 (GeneID 353189)	0.13	inactive
SLCO4C1 (GeneID 353189)	-0.12	inactive
SLCO4C1 (GeneID 353189)	0.45	inactive
SLCO4C1 (GeneID 353189)	-0.09	inactive
PNMA8B (GeneID 57469)		inactive
PNMA8B (GeneID 57469)	-0.92	inactive
PNMA8B (GeneID 57469)	-1.09	inactive
PNMA8B (GeneID 57469)	-0.94	inactive
PNMA8B (GeneID 57469)	-1.53	active
ZNF529 (GeneID 57711)	-0.5	inactive
ZNF529 (GeneID 57711)	-0.25	inactive
ZNF529 (GeneID 57711)	-0.62	inactive
ZNF529 (GeneID 57711)	0.97	inactive
GSK3A (GeneID 2931)	-1.6	active
GSK3A (GeneID 2931)	-1.65	active
GSK3A (GeneID 2931)	-0.09	inactive
GSK3A (GeneID 2931)	-0.43	inactive
P2RY11 (GeneID 5032)	-0.82	inactive
P2RY11 (GeneID 5032)	-0.79	inactive
P2RY11 (GeneID 5032)	-0.91	inactive
P2RY11 (GeneID 5032)	-1.13	inactive
TIGD7 (GeneID 91151)	1.12	inactive
TIGD7 (GeneID 91151)	6.61	active
TIGD7 (GeneID 91151)	1.84	inactive
TIGD7 (GeneID 91151)	1.08	inactive
CSRP2 (GeneID 1466)	-0.93	inactive
CSRP2 (GeneID 1466)	-0.73	inactive
CSRP2 (GeneID 1466)	-0.68	inactive
CSRP2 (GeneID 1466)	0.1	inactive
DSP (GeneID 1832)	-0.53	inactive
DSP (GeneID 1832)	-0.81	inactive
DSP (GeneID 1832)	-1.43	inactive
DSP (GeneID 1832)	-0.4	inactive
TMOD1 (GeneID 7111)	1.04	inactive
TMOD1 (GeneID 7111)	-0.25	inactive
TMOD1 (GeneID 7111)	-0.55	inactive
TMOD1 (GeneID 7111)	0.33	inactive
SOSTDC1 (GeneID 25928)	-0.25	inactive
SOSTDC1 (GeneID 25928)	-0.49	inactive
SOSTDC1 (GeneID 25928)	0.22	inactive
SOSTDC1 (GeneID 25928)	0.32	inactive
RGS9BP (GeneID 388531)	-0.97	inactive
RGS9BP (GeneID 388531)	-0.85	inactive
RGS9BP (GeneID 388531)	-1.35	inactive
RGS9BP (GeneID 388531)	-0.07	inactive
CD300A (GeneID 11314)	-0.49	inactive
CD300A (GeneID 11314)	-0.85	inactive
CD300A (GeneID 11314)	-0.53	inactive
CD300A (GeneID 11314)	0.13	inactive
PGLYRP2 (GeneID 114770)	-0.45	inactive
PGLYRP2 (GeneID 114770)	0.18	inactive
PGLYRP2 (GeneID 114770)	-1.26	inactive
PGLYRP2 (GeneID 114770)	0.24	inactive
GNG5 (GeneID 2787)	0.2	inactive
GNG5 (GeneID 2787)	0.01	inactive
GNG5 (GeneID 2787)	-0.11	inactive
GNG5 (GeneID 2787)	0.29	inactive
IGFL3 (GeneID 388555)	-0.96	inactive
IGFL3 (GeneID 388555)	-1.43	inactive
IGFL3 (GeneID 388555)	-1.07	inactive
IGFL3 (GeneID 388555)	-1.44	inactive
